1 substance from article doi:10.1101/2025.04.21.649841 can be followed below.

The chains behind the UniProt entries cited, without tags or fusion partners.
UniProt O60934: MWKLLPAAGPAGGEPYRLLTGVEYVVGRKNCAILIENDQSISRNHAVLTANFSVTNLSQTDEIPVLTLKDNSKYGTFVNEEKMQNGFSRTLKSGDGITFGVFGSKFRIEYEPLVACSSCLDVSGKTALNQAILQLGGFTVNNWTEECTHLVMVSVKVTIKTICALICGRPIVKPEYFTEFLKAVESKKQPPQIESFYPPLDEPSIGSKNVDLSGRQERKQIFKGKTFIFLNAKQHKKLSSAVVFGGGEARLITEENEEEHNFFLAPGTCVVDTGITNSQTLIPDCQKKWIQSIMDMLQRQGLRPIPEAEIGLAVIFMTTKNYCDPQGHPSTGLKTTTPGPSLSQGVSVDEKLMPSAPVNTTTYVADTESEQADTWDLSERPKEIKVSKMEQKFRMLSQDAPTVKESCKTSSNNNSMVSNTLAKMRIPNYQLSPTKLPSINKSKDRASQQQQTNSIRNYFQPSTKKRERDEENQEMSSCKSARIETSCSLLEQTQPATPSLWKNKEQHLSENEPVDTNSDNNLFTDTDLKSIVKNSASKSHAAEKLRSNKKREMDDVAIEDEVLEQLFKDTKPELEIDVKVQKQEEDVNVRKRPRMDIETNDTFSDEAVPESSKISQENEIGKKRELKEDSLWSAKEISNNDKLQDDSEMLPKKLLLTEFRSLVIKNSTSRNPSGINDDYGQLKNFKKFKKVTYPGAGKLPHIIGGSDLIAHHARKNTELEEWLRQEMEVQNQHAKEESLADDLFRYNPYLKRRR

Results are given in words; binding and its absence hold for the method and conditions named. In cells and extracts the contact can be indirect. Some entries that bind do so weakly or less than the wild type. Where a sequence is shown, tags or fusion partners need not be part of it.

The experiment has as its target T1, HA-tagged Treacle (pcDNA4-TO-strep-HA-GFP-Treacle) (UniProt Q13428).
T1 sequence: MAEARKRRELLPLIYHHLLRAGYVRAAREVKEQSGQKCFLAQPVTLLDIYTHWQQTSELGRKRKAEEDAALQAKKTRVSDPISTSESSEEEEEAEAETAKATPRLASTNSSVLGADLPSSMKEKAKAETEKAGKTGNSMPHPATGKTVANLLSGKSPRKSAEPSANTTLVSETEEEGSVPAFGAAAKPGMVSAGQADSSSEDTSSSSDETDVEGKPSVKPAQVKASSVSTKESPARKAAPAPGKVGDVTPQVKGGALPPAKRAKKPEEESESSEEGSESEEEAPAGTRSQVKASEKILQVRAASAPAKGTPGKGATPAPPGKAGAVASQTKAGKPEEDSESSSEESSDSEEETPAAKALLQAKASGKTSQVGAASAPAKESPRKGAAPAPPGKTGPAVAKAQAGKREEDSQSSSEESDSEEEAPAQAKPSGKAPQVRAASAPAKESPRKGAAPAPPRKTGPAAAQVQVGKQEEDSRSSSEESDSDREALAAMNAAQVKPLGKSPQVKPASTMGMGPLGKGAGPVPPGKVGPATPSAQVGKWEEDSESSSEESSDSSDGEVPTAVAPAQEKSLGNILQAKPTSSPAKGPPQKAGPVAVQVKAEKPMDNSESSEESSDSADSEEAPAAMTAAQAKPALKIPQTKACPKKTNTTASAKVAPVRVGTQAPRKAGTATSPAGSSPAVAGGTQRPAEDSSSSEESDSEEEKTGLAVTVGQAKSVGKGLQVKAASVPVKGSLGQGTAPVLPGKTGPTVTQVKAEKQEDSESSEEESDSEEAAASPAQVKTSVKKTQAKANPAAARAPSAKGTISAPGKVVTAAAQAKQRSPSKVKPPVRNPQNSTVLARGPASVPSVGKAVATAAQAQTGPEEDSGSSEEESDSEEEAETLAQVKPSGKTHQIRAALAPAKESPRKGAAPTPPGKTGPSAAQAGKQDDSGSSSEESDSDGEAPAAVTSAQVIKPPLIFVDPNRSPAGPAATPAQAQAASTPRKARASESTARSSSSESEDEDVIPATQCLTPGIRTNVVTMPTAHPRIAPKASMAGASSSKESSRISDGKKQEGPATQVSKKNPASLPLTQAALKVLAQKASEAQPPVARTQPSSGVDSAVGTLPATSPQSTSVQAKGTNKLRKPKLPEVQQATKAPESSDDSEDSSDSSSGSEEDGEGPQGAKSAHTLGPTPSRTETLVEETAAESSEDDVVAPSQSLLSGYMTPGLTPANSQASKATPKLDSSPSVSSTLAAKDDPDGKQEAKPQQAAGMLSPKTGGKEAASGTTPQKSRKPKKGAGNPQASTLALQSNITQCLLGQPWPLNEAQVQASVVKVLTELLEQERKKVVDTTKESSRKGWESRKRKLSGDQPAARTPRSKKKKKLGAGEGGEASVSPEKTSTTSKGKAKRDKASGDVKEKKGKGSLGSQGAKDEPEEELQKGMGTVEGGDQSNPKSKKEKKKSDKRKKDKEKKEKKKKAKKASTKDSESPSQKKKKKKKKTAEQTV
The experiment is described as follows: co-IP.

For the substance NBS1 (from UniProt O60934 1-754), the binding result is recorded as “binds”.
